The other results are listed elsewhere or left out.
compound: CCCS(=O)(=O)Nc1ccc(F)c(C(=O)c2c[nH]c3ncc(-c4ccc(Cl)cc4)cc23)c1F [vemurafenib]; assay: log2 fold change, soluble protein after heating vs DMSO (PISA); higher = thermal stabilisation; K562 lysate, 10 uM; active = over 0.2 and 3.5 SD of the protein, either way, in both replicates (recomputed)
Outline: (§1)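 Log-two fold change in thermal stability relative to solvent controls is reported from duplicates. For each sample, crude K562 extract from dounce-homogenised pellets in PBS pH 7.4 with 1 mM MgCl2, at 1 mg/mL protein, was treated with 10 μM compound for 30 min. Aliquots heated for 3 min across 48°C-58°C were pooled, brought to 0.5% NP-40 at 4°C and cleared at 21,000xg for 90 min. The supernatant was quantified by TMTpro 16plex LC-MS/MS with channel sums equalised.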

Chains of the proteins cited; added tags and fusions are not shown. Lines headed by an entry give the natural chain unless they say otherwise; changes in a name come on top.
UniProt P31949: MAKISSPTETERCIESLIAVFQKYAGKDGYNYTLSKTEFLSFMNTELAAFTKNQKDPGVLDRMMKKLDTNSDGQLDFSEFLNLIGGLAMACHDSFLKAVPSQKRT
UniProt O00442: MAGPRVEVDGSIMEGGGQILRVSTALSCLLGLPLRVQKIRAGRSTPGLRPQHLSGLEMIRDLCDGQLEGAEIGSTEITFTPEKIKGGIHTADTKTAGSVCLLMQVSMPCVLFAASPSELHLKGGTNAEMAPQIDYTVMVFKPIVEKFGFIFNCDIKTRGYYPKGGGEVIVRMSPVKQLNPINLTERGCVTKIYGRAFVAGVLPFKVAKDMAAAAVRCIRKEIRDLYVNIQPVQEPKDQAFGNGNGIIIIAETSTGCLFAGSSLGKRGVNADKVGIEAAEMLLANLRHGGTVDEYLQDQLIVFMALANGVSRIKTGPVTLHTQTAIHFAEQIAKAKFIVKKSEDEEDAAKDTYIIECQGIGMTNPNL
UniProt P29034: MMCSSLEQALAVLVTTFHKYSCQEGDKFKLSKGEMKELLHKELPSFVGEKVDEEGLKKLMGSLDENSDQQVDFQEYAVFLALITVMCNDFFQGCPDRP
UniProt O95059: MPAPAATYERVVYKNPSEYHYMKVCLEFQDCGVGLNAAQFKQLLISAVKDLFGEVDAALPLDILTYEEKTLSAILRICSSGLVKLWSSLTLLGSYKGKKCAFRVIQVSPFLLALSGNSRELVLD
UniProt P78345: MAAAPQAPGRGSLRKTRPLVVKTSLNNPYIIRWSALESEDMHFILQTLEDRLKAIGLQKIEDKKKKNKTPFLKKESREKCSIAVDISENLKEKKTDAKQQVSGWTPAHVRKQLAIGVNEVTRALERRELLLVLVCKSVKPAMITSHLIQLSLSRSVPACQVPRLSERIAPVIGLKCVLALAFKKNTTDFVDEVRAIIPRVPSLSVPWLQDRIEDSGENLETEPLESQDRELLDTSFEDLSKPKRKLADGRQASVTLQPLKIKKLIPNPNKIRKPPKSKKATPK
UniProt Q92766: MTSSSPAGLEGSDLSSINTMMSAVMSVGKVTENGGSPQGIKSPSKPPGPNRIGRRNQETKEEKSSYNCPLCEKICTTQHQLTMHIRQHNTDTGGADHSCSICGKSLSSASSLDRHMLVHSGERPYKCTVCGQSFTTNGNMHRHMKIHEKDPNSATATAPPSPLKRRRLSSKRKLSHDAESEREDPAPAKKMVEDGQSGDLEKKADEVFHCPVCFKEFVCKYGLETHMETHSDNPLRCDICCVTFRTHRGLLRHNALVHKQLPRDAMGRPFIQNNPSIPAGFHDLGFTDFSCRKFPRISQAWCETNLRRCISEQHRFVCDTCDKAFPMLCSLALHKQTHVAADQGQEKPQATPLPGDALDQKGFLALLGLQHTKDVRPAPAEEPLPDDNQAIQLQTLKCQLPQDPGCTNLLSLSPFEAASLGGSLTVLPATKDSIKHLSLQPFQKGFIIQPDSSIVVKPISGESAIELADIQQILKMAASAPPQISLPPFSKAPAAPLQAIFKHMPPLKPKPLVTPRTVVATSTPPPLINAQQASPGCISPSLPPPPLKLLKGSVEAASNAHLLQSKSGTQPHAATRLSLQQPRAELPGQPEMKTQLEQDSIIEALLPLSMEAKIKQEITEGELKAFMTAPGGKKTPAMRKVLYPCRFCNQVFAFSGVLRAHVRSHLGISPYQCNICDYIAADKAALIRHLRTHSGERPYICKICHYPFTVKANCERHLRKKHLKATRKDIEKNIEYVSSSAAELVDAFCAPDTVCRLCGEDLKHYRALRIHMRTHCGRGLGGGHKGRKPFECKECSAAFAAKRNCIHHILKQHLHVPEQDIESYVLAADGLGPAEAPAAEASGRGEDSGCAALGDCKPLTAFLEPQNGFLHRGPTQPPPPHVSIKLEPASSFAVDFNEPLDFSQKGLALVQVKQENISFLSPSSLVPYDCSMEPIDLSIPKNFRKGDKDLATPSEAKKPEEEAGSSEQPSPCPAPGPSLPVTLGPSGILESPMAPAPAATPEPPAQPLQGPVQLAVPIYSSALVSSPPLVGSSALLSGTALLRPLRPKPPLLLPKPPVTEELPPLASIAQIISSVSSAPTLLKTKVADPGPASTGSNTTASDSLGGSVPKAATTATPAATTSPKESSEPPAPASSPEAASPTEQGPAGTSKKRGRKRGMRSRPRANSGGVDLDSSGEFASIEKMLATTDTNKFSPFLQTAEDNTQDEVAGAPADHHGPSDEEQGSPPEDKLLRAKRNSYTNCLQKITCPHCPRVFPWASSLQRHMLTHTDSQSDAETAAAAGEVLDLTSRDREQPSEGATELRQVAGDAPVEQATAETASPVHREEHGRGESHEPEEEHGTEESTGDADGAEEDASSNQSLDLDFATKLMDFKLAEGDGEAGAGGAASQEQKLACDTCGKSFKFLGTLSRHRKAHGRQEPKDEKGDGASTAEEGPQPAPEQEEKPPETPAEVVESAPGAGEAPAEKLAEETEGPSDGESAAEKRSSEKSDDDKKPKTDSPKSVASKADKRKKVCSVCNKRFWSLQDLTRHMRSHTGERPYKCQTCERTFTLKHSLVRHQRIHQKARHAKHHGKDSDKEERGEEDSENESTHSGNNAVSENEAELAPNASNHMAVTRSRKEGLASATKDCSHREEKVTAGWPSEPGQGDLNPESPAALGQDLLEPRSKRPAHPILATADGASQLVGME
UniProt Q8N5L8: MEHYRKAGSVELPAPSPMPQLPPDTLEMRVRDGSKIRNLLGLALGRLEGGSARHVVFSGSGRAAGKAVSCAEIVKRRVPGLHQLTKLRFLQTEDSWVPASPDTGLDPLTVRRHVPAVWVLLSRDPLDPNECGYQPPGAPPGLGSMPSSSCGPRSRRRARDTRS
UniProt Q96T23: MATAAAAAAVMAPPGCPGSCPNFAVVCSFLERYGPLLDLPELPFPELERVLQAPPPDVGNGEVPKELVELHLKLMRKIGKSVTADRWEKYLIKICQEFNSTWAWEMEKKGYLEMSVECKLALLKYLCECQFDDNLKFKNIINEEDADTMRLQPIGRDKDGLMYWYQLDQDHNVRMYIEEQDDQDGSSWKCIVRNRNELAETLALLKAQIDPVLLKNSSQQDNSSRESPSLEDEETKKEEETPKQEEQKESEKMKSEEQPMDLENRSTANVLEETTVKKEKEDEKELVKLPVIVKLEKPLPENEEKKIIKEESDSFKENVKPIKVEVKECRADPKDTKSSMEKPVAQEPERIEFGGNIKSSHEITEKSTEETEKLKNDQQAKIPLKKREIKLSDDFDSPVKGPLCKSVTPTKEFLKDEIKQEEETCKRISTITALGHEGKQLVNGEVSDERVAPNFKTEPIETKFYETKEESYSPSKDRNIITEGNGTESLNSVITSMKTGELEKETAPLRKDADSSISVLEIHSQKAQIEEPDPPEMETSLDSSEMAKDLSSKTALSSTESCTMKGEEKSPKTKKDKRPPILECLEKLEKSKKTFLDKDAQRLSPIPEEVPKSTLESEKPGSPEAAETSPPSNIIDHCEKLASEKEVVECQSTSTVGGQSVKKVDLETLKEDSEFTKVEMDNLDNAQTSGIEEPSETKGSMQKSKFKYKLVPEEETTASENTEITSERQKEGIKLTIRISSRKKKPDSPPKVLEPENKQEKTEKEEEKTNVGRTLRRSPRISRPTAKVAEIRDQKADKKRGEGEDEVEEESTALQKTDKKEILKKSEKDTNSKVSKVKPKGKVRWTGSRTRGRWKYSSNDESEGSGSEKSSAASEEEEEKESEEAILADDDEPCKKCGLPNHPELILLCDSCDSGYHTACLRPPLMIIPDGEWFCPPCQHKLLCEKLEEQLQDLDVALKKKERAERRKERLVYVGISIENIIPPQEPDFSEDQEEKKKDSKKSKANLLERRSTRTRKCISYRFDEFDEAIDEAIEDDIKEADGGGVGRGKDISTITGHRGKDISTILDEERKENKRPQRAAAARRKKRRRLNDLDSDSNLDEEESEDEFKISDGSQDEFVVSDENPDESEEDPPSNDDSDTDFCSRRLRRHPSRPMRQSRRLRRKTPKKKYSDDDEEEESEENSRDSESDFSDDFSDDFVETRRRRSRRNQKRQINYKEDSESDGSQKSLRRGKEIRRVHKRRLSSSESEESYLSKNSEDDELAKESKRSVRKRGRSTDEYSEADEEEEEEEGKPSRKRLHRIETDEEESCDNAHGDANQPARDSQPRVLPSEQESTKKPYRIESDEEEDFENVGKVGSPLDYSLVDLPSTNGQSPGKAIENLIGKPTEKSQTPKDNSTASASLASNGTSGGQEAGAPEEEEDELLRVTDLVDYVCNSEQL
UniProt Q6PCB5: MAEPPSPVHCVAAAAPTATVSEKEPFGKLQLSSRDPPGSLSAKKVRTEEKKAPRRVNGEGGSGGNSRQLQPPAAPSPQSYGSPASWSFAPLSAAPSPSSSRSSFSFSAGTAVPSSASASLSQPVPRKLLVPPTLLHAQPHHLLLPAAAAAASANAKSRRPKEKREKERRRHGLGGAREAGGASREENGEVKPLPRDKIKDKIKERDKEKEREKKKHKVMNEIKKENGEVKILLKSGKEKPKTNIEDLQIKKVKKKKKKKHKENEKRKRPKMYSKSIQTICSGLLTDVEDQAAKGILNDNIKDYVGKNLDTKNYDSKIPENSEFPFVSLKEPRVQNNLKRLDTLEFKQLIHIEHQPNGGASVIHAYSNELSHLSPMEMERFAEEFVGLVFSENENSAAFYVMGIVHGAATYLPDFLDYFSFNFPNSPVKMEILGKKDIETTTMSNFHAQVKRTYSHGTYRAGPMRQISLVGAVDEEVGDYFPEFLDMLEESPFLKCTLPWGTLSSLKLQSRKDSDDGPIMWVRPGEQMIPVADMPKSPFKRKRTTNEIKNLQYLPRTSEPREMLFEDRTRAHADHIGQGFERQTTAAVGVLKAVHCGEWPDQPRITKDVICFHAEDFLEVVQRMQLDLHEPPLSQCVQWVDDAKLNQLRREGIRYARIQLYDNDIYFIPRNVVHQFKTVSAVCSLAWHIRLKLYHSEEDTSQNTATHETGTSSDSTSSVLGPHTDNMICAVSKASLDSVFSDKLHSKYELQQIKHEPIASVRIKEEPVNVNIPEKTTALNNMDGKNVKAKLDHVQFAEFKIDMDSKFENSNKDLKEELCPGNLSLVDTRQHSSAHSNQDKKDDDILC
UniProt Q9Y3A4: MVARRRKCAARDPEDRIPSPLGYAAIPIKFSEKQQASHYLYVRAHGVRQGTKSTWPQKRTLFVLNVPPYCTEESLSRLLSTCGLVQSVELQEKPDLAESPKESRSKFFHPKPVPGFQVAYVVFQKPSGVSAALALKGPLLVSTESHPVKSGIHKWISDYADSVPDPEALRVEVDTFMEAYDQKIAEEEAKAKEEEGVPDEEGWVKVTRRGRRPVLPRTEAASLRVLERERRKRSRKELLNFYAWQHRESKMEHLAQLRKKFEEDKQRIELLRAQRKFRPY
UniProt Q9NYV6: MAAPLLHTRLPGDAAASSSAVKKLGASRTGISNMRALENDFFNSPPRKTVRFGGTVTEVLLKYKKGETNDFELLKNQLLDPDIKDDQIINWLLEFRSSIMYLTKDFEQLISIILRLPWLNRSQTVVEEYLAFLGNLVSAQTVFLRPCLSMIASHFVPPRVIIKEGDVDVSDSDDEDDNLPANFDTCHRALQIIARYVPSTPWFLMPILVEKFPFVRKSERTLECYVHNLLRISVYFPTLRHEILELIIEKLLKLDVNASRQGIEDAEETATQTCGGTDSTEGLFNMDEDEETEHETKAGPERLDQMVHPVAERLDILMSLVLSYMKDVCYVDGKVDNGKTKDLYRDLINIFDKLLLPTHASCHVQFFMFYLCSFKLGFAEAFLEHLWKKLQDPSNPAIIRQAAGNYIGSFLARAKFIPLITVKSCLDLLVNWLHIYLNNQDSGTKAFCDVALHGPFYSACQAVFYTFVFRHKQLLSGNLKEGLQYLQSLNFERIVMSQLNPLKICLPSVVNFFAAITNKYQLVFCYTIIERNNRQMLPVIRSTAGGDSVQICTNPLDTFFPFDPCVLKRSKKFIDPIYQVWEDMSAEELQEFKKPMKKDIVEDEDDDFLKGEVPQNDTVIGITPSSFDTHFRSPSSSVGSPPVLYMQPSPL
UniProt Q9Y265, whole entry, looked up: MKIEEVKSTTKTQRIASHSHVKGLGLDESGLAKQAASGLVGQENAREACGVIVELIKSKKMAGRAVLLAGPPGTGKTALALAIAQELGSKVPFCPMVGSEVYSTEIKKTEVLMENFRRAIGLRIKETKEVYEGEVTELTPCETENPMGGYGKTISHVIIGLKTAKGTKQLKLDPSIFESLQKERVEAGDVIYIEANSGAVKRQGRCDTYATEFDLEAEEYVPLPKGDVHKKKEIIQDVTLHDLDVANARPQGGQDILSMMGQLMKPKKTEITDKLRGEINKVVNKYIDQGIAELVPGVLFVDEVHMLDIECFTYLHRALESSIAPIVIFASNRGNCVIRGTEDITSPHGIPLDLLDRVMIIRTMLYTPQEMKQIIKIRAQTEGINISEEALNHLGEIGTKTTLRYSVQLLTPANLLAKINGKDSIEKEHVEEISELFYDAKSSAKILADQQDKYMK
UniProt P60903, whole entry, looked up: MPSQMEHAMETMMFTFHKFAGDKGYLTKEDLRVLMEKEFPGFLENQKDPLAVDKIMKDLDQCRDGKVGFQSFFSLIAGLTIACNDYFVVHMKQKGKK

log2 fold change, inactive:
RPS27L (UniProt Q71UM5) 0
RTTN (UniProt Q86VV8) 0.066
S100A11 (UniProt P31949) 0.005
RTCA (UniProt O00442) 0.013
S100A2 (UniProt P29034) 0.199
RSRC2 (UniProt Q7L4I2) -0.01
RSAD1 (UniProt Q9HA92) 0.038
RPP14 (UniProt O95059) -0.166
RPS26 (UniProt P62854) 0.077
RPP38 (UniProt P78345) -0.017
RPUSD4 (UniProt Q96CM3) 0
RWDD2B (UniProt P57060) 0.042
RREB1 isoform 2 (UniProt Q92766) 0.044
RPP25L (UniProt Q8N5L8) 0.02
RSF1 (UniProt Q96T23) 0.105
RPS7, A0A2R8Y623 0.313
RPS6KA3 (UniProt P51812) 0.031
RXRB isoform 3 (UniProt P28702) 0.028
RSBN1L (UniProt Q6PCB5) 0.125
RPN2 (UniProt P04844) 0.009
RPS2 (UniProt P15880) -0.011
RPS3A (UniProt P61247) -0.033
RRP7A (UniProt Q9Y3A4) 0.031
RPS24 isoform 4 (UniProt P62847) -0.016
RRN3 (UniProt Q9NYV6) 0.051
RTL10 (UniProt Q7L3V2) 0.027
RPS6KA1 (UniProt Q15418) -0.037
RUVBL1 (UniProt Q9Y265) 0.015

compound: CCCS(=O)(=O)Nc1ccc(F)c(C(=O)c2c[nH]c3ncc(Cl)cc23)c1F; assay: as above
Outline: as §1

log2 fold change, inactive:
RPS27L (UniProt Q71UM5) 0.028
RTTN (UniProt Q86VV8) 0.011
S100A11 (UniProt P31949) -0.015
RTCA (UniProt O00442) 0.057
S100A2 (UniProt P29034) 0.035
RSRC2 (UniProt Q7L4I2) -0.02
RYR1 (UniProt P21817) -0.038
RSAD1 (UniProt Q9HA92) 0.057
RPP14 (UniProt O95059) -0.066
RPS26 (UniProt P62854) 0.015
RPP38 (UniProt P78345) 0.011
RWDD2B (UniProt P57060) -0.028
RREB1 isoform 2 (UniProt Q92766) -0.056
RPP25L (UniProt Q8N5L8) 0.009
RSF1 (UniProt Q96T23) 0.05
RPS7, A0A2R8Y623 -0.143
S100A14 (UniProt Q9HCY8) -0.036
RPS6KA3 (UniProt P51812) 0.005
RXRB isoform 3 (UniProt P28702) 0.136
RSBN1L (UniProt Q6PCB5) 0.191
RPN2 (UniProt P04844) 0.008
RPS2 (UniProt P15880) 0.002
RPS3A (UniProt P61247) 0
RRP7A (UniProt Q9Y3A4) 0.059
RPS24 isoform 4 (UniProt P62847) -0.002
RRN3 (UniProt Q9NYV6) -0.013
RUFY3 isoform 2 (UniProt Q7L099) 0.072
RPS6KA1 (UniProt Q15418) -0.004
RUVBL1 (UniProt Q9Y265) 0.007
S100A16 (UniProt Q96FQ6) -0.264

compound: CCN(CCCOc1ccc2c(Nc3cc(CC(=O)Nc4cccc(F)c4)[nH]n3)ncnc2c1)CCOP(=O)(O)O [barasertib]; assay: as above
Outline: as §1

log2 fold change, inactive:
RPS27L (UniProt Q71UM5) -0.006
RTTN (UniProt Q86VV8) 0.043
S100A11 (UniProt P31949) 0.008
RTCA (UniProt O00442) -0.038
S100A2 (UniProt P29034) 0.252
RSRC2 (UniProt Q7L4I2) -0.035
RYR1 (UniProt P21817) 0.041
RSAD1 (UniProt Q9HA92) 0.177
RPP14 (UniProt O95059) -0.038
RPS26 (UniProt P62854) -0.084
RPP38 (UniProt P78345) -0.007
RPUSD4 (UniProt Q96CM3) 0.031
RWDD2B (UniProt P57060) -0.029
RREB1 isoform 2 (UniProt Q92766) 0.049
RPP25L (UniProt Q8N5L8) 0.034
RSF1 (UniProt Q96T23) 0.004
RPS7, A0A2R8Y623 0.4
S100A14 (UniProt Q9HCY8) 0.248
RPS6KA3 (UniProt P51812) -0.003
RXRB isoform 3 (UniProt P28702) 0.106
RSBN1L (UniProt Q6PCB5) -0.029
RPN2 (UniProt P04844) 0.019
RPS2 (UniProt P15880) -0.038
RPS3A (UniProt P61247) -0.017
RRP7A (UniProt Q9Y3A4) 0.027
RPS24 isoform 4 (UniProt P62847) -0.013
RRN3 (UniProt Q9NYV6) 0.099
S100A10 (UniProt P60903) 0.309
RUFY3 isoform 2 (UniProt Q7L099) -0.003
RTL10 (UniProt Q7L3V2) -0.105
RPS6KA1 (UniProt Q15418) -0.006
RUVBL1 (UniProt Q9Y265) -0.013
S100A16 (UniProt Q96FQ6) 0.271

— the supplement of paper PMC10849652
